Reference: US7205162B1, “Artificial antibodies, method of producing the same and use thereof” (priority 1995, dated 2007)

Experiment: Scatchard plot analysis with radio-labelled ligand, anti-diazepam polymer

Q: What does the source list for CN1C(=O)CN=C(c2ccccc2)c2cc(Cl)ccc21 [Diazepam]?
A: population of sites, high affinity: 0.0071 µmol/g; population of sites, low affinity: 0.51 µmol/g
